These are yes or no findings as the source states them, for the method shown.
Biological target: T1, S-adenosyl-L-homocysteine hydrolase 2 (SAHH2), Arabidopsis thaliana (Arabidopsis thaliana (endogenous in leaves)) (UniProt Q9LK36)
T1 sequence: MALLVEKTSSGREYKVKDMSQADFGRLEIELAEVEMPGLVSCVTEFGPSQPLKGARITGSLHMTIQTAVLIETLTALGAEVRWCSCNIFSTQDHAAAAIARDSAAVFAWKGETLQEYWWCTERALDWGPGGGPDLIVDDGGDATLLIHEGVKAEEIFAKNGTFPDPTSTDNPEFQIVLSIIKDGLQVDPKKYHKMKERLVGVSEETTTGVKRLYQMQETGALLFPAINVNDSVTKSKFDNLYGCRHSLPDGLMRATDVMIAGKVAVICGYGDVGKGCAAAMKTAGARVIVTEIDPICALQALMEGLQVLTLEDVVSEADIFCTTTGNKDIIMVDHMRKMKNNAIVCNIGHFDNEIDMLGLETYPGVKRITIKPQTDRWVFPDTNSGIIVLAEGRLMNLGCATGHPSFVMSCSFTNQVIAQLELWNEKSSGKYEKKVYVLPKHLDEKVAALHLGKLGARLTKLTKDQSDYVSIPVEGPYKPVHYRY
Experiment: native gel or EMSA; 2D Clear Native PAGE of A. thaliana leaf extract, immunoblots with anti-SAHH and anti-ADK antibodies

binding: no binding
Sequence: ADENOSINE KINASE (ADK), Arabidopsis thaliana (enzyme)

Reference: article PMC7367456
